Experimental data published in the supplement of paper PMC10849652.
The list shows a part of the results.

Protein sequences, listed by entry. Tags and fused reporters are not part of them. Lines headed by an entry give the natural chain unless they say otherwise; changes in a name come on top.
UniProt Q15653: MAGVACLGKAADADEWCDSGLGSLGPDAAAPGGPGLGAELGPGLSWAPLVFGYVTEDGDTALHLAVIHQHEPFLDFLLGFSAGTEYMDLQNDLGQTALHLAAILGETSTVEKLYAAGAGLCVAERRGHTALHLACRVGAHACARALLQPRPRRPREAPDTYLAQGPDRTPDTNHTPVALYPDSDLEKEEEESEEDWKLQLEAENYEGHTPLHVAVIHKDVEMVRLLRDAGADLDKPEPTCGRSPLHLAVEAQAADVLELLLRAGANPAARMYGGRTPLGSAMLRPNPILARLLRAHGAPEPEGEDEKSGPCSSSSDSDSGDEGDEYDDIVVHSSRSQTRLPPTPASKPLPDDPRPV
UniProt Q9NYR9: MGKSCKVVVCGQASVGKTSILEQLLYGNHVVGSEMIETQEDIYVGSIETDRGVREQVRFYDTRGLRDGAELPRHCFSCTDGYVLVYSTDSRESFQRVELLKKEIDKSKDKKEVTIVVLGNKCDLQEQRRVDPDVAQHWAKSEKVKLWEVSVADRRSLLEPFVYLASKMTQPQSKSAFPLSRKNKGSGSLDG
UniProt Q9P0J0, whole entry, looked up: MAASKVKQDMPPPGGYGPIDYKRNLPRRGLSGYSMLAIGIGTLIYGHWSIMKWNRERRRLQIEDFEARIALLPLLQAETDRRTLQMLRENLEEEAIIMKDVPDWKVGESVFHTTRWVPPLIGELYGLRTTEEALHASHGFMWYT
UniProt Q9UHB4: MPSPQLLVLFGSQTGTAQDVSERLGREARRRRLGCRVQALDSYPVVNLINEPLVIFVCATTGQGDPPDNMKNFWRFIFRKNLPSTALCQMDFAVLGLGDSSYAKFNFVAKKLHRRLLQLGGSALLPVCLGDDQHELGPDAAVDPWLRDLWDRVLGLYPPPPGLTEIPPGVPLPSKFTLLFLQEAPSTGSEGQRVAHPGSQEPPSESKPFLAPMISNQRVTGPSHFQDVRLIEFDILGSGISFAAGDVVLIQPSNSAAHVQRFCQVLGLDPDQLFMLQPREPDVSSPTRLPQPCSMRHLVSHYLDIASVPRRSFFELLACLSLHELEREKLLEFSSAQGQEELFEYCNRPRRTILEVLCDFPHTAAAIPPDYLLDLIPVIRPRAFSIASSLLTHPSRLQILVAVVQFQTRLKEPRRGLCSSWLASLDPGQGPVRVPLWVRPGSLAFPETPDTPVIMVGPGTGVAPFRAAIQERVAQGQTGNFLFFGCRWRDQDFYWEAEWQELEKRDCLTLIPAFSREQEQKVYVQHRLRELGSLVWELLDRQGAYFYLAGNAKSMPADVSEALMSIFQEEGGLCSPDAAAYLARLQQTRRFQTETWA
UniProt P48681: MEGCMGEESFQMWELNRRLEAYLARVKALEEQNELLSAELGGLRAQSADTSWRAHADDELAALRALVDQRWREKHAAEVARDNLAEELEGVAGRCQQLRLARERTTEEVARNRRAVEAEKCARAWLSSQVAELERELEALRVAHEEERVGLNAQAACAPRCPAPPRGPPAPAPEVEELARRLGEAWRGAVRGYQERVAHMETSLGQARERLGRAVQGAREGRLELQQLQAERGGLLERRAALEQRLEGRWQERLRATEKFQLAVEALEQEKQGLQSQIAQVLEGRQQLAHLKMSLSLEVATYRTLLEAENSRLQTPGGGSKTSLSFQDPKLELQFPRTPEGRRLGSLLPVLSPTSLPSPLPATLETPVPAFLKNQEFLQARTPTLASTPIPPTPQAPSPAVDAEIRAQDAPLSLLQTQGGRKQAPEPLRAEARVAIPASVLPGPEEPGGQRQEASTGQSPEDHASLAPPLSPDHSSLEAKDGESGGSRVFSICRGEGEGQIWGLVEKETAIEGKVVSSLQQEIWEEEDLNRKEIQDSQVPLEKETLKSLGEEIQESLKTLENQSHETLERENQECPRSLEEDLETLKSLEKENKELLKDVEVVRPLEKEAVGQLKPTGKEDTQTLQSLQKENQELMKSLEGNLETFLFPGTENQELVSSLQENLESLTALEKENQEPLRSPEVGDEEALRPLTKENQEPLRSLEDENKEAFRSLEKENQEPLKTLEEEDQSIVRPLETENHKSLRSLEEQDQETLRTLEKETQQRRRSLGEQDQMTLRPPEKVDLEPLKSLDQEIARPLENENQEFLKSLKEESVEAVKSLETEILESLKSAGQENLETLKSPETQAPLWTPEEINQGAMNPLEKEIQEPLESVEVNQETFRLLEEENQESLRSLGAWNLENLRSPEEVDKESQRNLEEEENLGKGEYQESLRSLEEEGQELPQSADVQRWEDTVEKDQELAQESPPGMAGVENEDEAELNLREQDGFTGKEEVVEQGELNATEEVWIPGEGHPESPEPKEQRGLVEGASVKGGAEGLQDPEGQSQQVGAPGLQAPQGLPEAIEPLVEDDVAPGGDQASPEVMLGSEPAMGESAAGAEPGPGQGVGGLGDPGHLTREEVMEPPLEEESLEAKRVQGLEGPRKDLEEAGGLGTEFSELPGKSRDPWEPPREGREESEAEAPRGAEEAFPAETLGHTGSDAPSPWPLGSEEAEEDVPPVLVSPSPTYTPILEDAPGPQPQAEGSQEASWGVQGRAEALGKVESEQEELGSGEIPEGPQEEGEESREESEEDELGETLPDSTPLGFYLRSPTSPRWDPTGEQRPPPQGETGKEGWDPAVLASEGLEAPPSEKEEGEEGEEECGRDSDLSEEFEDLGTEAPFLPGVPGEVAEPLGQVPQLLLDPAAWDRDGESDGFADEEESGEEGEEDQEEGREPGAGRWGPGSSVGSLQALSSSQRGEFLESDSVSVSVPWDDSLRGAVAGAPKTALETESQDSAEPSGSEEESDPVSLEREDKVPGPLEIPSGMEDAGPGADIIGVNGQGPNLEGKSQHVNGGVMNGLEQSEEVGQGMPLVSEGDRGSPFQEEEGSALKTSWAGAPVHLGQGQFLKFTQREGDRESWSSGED
UniProt P56181: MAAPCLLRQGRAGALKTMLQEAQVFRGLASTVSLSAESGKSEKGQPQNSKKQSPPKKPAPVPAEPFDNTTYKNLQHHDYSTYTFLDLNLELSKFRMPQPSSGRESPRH
UniProt Q6NW34: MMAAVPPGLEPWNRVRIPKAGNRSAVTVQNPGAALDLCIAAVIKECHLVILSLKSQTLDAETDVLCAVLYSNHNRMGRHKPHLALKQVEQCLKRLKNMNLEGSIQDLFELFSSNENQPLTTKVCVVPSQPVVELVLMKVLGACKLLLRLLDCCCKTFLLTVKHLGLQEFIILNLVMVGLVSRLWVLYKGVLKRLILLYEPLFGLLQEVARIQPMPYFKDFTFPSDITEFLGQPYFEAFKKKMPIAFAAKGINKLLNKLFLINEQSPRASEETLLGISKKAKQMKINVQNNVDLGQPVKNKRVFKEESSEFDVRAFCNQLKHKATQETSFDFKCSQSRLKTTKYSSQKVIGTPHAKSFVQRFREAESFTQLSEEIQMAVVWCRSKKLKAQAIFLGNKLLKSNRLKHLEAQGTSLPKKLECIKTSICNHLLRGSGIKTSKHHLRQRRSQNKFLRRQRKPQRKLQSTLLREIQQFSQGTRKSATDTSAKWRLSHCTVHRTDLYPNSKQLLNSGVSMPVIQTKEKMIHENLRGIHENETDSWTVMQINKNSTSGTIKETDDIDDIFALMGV
UniProt P17568, whole entry, looked up: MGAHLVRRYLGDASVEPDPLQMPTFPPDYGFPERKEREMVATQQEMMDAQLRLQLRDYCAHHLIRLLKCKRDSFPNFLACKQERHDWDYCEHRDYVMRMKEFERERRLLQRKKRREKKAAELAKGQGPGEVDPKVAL
UniProt Q15843, whole entry, looked up: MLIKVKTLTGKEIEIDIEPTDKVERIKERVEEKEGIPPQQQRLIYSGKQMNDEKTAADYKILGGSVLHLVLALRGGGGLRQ
UniProt Q7RTR2: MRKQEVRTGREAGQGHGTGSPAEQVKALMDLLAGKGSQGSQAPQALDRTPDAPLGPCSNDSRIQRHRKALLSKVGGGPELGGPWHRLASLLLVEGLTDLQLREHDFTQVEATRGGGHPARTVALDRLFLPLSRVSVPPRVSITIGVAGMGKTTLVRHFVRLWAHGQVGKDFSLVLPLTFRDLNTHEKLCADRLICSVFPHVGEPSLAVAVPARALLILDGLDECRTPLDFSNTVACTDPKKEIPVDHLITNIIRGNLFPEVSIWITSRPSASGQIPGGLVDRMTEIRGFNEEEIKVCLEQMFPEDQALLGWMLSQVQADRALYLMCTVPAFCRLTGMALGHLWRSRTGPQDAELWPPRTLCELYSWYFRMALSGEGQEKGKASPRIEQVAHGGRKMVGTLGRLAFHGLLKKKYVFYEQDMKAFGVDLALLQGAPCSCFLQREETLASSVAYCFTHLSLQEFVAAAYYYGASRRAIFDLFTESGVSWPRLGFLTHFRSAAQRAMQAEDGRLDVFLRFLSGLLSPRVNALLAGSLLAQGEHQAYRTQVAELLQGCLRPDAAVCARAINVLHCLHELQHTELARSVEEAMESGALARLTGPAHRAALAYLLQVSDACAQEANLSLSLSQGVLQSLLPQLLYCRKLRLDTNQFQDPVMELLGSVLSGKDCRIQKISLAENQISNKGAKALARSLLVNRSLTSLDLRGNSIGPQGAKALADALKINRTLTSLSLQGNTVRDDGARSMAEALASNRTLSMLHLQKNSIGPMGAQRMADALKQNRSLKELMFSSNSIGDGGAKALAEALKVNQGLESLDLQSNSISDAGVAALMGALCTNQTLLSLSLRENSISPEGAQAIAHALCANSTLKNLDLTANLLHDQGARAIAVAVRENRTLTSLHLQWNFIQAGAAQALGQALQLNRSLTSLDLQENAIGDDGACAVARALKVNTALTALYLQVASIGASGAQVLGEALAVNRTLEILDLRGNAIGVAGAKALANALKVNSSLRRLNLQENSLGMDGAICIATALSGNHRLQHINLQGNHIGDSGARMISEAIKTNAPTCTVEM
UniProt O43676, whole entry, looked up: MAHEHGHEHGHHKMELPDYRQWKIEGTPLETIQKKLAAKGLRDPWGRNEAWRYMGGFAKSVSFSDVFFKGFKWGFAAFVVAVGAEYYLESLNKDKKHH
UniProt Q8NHV4, whole entry, looked up: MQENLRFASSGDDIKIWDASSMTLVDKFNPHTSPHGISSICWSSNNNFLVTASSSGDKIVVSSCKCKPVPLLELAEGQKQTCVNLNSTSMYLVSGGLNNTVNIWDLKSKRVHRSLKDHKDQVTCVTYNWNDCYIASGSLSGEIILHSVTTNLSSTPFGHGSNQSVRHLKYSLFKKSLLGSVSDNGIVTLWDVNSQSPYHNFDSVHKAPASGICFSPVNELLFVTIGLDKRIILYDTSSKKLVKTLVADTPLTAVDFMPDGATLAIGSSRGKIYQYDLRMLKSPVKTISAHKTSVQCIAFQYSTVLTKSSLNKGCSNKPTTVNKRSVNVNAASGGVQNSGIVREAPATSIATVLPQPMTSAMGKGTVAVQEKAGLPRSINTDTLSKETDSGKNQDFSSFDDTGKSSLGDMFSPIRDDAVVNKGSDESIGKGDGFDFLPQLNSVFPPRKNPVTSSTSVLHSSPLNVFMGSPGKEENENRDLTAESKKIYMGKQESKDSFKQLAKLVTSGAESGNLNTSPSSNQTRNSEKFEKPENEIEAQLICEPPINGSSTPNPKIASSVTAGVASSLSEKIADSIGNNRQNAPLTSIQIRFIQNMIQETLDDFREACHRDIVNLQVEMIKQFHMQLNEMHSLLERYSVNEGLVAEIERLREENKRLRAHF
UniProt Q96TA1: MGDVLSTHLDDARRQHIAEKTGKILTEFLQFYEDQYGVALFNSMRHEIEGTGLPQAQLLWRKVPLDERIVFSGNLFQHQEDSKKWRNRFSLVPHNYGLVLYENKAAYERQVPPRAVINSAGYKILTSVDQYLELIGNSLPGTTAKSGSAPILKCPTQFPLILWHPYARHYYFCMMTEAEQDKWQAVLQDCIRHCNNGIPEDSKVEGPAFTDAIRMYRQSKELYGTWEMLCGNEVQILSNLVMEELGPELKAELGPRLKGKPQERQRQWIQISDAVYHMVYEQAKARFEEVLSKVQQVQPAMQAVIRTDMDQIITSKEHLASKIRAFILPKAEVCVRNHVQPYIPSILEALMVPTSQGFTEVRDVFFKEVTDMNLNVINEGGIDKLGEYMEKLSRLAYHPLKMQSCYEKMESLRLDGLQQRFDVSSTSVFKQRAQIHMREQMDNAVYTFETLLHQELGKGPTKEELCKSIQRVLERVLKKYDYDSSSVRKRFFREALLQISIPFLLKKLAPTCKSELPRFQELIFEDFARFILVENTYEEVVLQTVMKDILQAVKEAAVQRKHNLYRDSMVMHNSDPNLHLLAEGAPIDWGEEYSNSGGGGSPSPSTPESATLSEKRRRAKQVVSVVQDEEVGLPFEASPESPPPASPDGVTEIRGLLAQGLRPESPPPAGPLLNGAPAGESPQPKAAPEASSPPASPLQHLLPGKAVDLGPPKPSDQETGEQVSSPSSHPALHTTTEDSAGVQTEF
UniProt O95182, whole entry, looked up: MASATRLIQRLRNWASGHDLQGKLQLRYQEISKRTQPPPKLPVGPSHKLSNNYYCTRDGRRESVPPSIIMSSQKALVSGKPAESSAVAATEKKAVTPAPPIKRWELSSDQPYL

Key:
Test in all cases: log2 fold change, soluble protein after heating vs DMSO (PISA); higher = thermal stabilisation; K562 lysate, 10 uM; active = over 0.2 and 3.5 SD of the protein, either way, in both replicates (recomputed)
nilotinib = compound: Cc1cn(-c2cc(NC(=O)c3ccc(C)c(Nc4nccc(-c5cccnc5)n4)c3)cc(C(F)(F)F)c2)cn1 [nilotinib]
Summary of the method: (§1)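 Log-two fold change in thermal stability relative to solvent controls is reported from duplicates. For each sample, crude K562 extract from dounce-homogenised pellets in PBS pH 7.4 with 1 mM MgCl2, at 1 mg/mL protein, was treated with 10 μM compound for 30 min. Aliquots heated for 3 min across 48°C-58°C were pooled, brought to 0.5% NP-40 at 4°C and cleared at 21,000xg for 90 min. The supernatant was quantified by TMTpro 16plex LC-MS/MS with channel sums equalised.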

[1] = compound: Cc1nc(Nc2n[nH]c3c2CN(C(=O)N[C@H](CN(C)C)c2ccccc2)C3(C)C)c2sccc2n1
Summary of the method: as §1

dasatinib = compound: Cc1nc(Nc2ncc(C(=O)Nc3c(C)cccc3Cl)s2)cc(N2CCN(CCO)CC2)n1 [dasatinib]
Summary of the method: as §1

[2] = compound: Cc1ncc(-c2ccnc(Nc3ccc(S(C)(=O)=O)cc3)n2)n1C(C)C
Summary of the method: as §1

[3] = compound: Cn1cc(-c2ccc3c(c2)CCN3C(=O)Cc2cccc(C(F)(F)F)c2)c2c(N)ncnc21
Summary of the method: as §1

quisinostat = compound: Cn1cc(CNCC2CCN(c3ncc(C(=O)NO)cn3)CC2)c2ccccc21 [quisinostat]
Summary of the method: as §1

tipifarnib = compound: Cn1cncc1[C@@](N)(c1ccc(Cl)cc1)c1ccc2c(c1)c(-c1cccc(Cl)c1)cc(=O)n2C [tipifarnib]
Summary of the method: as §1

[4] = compound: NC(=O)Nc1cc(-c2cccc(F)c2)sc1C(=O)N[C@H]1CCCNC1
Summary of the method: as §1

[5] = compound: NC(=O)c1cnc(N[C@@H]2CCCC[C@@H]2N)nc1Nc1cccc(-n2nccn2)c1
Summary of the method: as §1

[6] = compound: NC1(c2ccc(-c3nc4ccn5c(=O)[nH]nc5c4cc3-c3ccccc3)cc2)CCC1
Summary of the method: as §1

Row | Target | log2 fold change (nilotinib) | log2 fold change [1] | log2 fold change (dasatinib) | log2 fold change [2] | log2 fold change [3] | log2 fold change (quisinostat) | log2 fold change (tipifarnib) | log2 fold change [4] | log2 fold change [5] | log2 fold change [6]
1 | NFIC (UniProt P08651) | inactive: -0.058 | inactive: -0.162 | inactive: 0.014 | inactive: -0.114 | inactive: 0.022 | inactive: -0.072 | inactive: 0.014 | inactive: 0.029 | inactive: 0.098 | inactive: 0.016
2 | NENF (UniProt Q9UMX5) | inactive: -0.051 | inactive: 0.032 | inactive: -0.001 | inactive: -0.023 | inactive: -0.036 | inactive: -0.078 | inactive: 0.001 | inactive: -0.007 | inactive: -0.013 | inactive: 0.011
3 | NFKBIB (UniProt Q15653) | inactive: -0.004 | inactive: -0.015 | inactive: -0.042 | inactive: 0.052 | inactive: 0.043 | inactive: -0.062 | inactive: 0.059 | inactive: 0.025 | inactive: 0.004 | inactive: -0.08
4 | NDUFB10 (UniProt O96000) | inactive: 0.012 | inactive: -0.003 | inactive: -0.002 | inactive: -0.018 | inactive: -0.051 | inactive: -0.021 | inactive: -0.008 | inactive: 0.029 | inactive: 0.024 | inactive: -0.009
5 | NKIRAS2 (UniProt Q9NYR9) | inactive: -0.088 | inactive: -0.175 | inactive: -0.012 | inactive: -0.023 | inactive: -0.078 | inactive: -0.18 | inactive: 0.044 | inactive: 0.071 | inactive: 0.003 | inactive: 0.02
6 | NDUFA13 (UniProt Q9P0J0) | inactive: -0.014 | inactive: -0.024 | inactive: -0.066 | inactive: 0.033 | inactive: -0.038 | inactive: 0.098 | inactive: 0.021 | inactive: -0.027 | inactive: -0.004 | inactive: 0.004
7 | NFKB2 (UniProt Q00653) | inactive: 0.009 | inactive: -0.005 | inactive: 0.005 | inactive: 0.033 | inactive: -0.001 | inactive: -0.095 | inactive: -0.04 | inactive: 0.046 | inactive: 0.029 | inactive: -0.021
8 | NDUFS1 isoform 2 (UniProt P28331) | inactive: 0.005 | inactive: -0.001 | inactive: 0.013 | inactive: -0.021 | inactive: 0.009 | inactive: 0.112 | inactive: -0.002 | inactive: -0.018 | inactive: 0.003 | inactive: 0.006
9 | NDOR1 isoform 2 (UniProt Q9UHB4) | inactive: 0.041 | inactive: 0.045 | inactive: -0.039 | inactive: 0.035 | inactive: 0.056 | inactive: 0.008 | inactive: -0.016 | inactive: -0.02 | inactive: 0.049 | inactive: -0.035
10 | NDUFS4 (UniProt O43181) | inactive: 0.017 | inactive: 0.044 | inactive: 0.019 | inactive: 0.038 | inactive: 0.023 | inactive: -0.04 | inactive: -0.006 | inactive: -0.022 | inactive: 0.019 | inactive: 0.012
11 | NES (UniProt P48681) | inactive: -0.017 | inactive: -0.037 | inactive: -0.018 | inactive: 0.017 | inactive: 0.011 | inactive: -0.033 | inactive: 0.01 | inactive: 0.018 | inactive: -0.002 | inactive: -0.001
12 | NFXL1 (UniProt Q6ZNB6) | inactive: -0.012 | inactive: 0.038 | inactive: -0.065 | inactive: 0.074 | inactive: -0.074 | inactive: 0.143 | inactive: -0.055 | inactive: -0.087 | inactive: -0.025 | inactive: 0.022
13 | NDUFV3 (UniProt P56181) | inactive: 0.067 | inactive: 0.248 | inactive: 0.034 | inactive: -0.151 | inactive: -0.074 | inactive: -0.014 | inactive: -0.203 | inactive: -0.065 | inactive: -0.023 | inactive: 0.01
14 | NEPRO (UniProt Q6NW34) | inactive: 0.137 | inactive: 0.062 | inactive: -0.082 | inactive: -0.011 | inactive: 0.021 | inactive: -0.095 | inactive: 0.011 | inactive: 0.07 | inactive: -0.105 | inactive: -0.036
15 | NIPBL (UniProt Q6KC79) | inactive: 0.06 | inactive: -0.002 | inactive: -0.037 | inactive: 0.019 | inactive: 0.091 | inactive: -0.043 | inactive: 0.014 | inactive: 0.02 | inactive: 0.003 | inactive: 0.018
16 | NDUFB7 (UniProt P17568) | inactive: 0.229 | inactive: 0.015 | inactive: 0.034 | inactive: -0.112 | inactive: -0.042 | inactive: -0.014 | inactive: -0.067 | inactive: 0.009 | inactive: 0.031 | inactive: -0.038
17 | NGLY1 (UniProt Q96IV0) | inactive: -0.004 | inactive: 0.02 | inactive: -0.038 | inactive: 0.008 | inactive: 0.042 | inactive: -0.104 | inactive: -0.016 | inactive: 0.041 | inactive: -0.005 | inactive: -0.03
18 | NDUFB11 isoform 2 (UniProt Q9NX14) | inactive: 0.096 | inactive: -0.014 | inactive: -0.049 | inactive: 0.115 | inactive: -0.003 | inactive: 0.043 | inactive: 0.03 | inactive: -0.045 | inactive: -0.003 | inactive: -0.029
19 | NDUFV3 isoform 2 (UniProt P56181) | inactive: 0.006 | inactive: 0.023 | inactive: -0.002 | inactive: 0.006 | inactive: -0.011 | inactive: 0.008 | inactive: -0.01 | inactive: -0.03 | inactive: -0.016 | inactive: 0.002
20 | NDUFC2 (UniProt O95298) | inactive: -0.073 | inactive: 0.053 | inactive: -0.057 | inactive: 0.04 | inactive: 0.065 | inactive: 0.163 | inactive: 0.062 | inactive: -0.071 | inactive: -0.007 | inactive: -0.04
21 | NHLRC3 (UniProt Q5JS37) | inactive: -0.02 | inactive: -0.033 | inactive: 0.013 | inactive: 0 | inactive: 0.043 | inactive: -0.096 | inactive: 0.015 | inactive: 0.005 | inactive: -0.028 | inactive: -0.038
22 | NEDD8 (UniProt Q15843) | inactive: 0.004 | inactive: -0.073 | inactive: 0.027 | inactive: 0.103 | inactive: -0.034 | inactive: 0.034 | inactive: 0.066 | inactive: -0.038 | inactive: -0.057 | inactive: 0.018
23 | NFKBIE (UniProt O00221) | inactive: -0.074 | inactive: 0.014 | inactive: -0.053 | active: 0.424 | inactive: 0.002 | inactive: -0.004 | inactive: -0.112 | inactive: 0.025 | inactive: 0.061 | inactive: -0.024
24 | NFE2 (UniProt Q16621) | inactive: 0.007 | inactive: -0.011 | inactive: 0.028 | inactive: 0.027 | inactive: -0.032 | inactive: -0.048 | inactive: -0.026 | inactive: -0.007 | inactive: 0.002 | inactive: 0.065
25 | NLRC3 isoform 2 (UniProt Q7RTR2) | inactive: -0.119 | inactive: 0.206 | inactive: -0.025 | inactive: -0.085 | inactive: -0.022 | inactive: -0.183 | inactive: -0.015 | inactive: -0.031 | inactive: -0.001 | inactive: -0.141
26 | NDUFB3 (UniProt O43676) | inactive: -0.01 | inactive: 0.011 | inactive: 0.009 | inactive: -0.061 | inactive: 0.044 | inactive: -0.001 | inactive: 0.036 | inactive: 0.009 | inactive: -0.036 | inactive: 0.067
27 | NEDD1 isoform 3 (UniProt Q8NHV4) | inactive: -0.053 | inactive: 0 | inactive: 0.042 | inactive: 0.049 | inactive: 0.112 | inactive: 0.05 | inactive: -0.011 | inactive: 0 | inactive: -0.013 | inactive: 0.013
28 | NIBAN2 (UniProt Q96TA1) | inactive: 0.004 | inactive: 0.028 | inactive: 0.006 | inactive: -0.01 | inactive: 0.005 | inactive: -0.032 | inactive: -0.014 | inactive: 0.012 | inactive: 0.016 | inactive: 0.035
29 | NDUFA7 (UniProt O95182) | inactive: -0.017 | inactive: 0.016 | inactive: -0.01 | inactive: -0.014 | inactive: -0.02 | inactive: -0.026 | inactive: 0.009 | inactive: 0.027 | inactive: -0.047 | inactive: 0.023
30 | NEB isoform 3 (UniProt P20929) | inactive: 0.14 | inactive: -0.154 | inactive: 0.031 | inactive: -0.037 | inactive: -0.077 | inactive: -0.155 | inactive: -0.256 | inactive: 0.014 | inactive: 0.051 | inactive: -0.103

Some of the entries so far, tab-delimited:
Row	Target	log2 fold change (nilotinib)	log2 fold change [1]	log2 fold change (dasatinib)	log2 fold change [2]	log2 fold change [3]	log2 fold change (quisinostat)	log2 fold change (tipifarnib)	log2 fold change [4]	log2 fold change [5]	log2 fold change [6]
4	NDUFB10 (UniProt O96000)	inactive: 0.012	inactive: -0.003	inactive: -0.002	inactive: -0.018	inactive: -0.051	inactive: -0.021	inactive: -0.008	inactive: 0.029	inactive: 0.024	inactive: -0.009
7	NFKB2 (UniProt Q00653)	inactive: 0.009	inactive: -0.005	inactive: 0.005	inactive: 0.033	inactive: -0.001	inactive: -0.095	inactive: -0.04	inactive: 0.046	inactive: 0.029	inactive: -0.021
